Results as given in the supplement of paper PMC8728848.
The other results are listed elsewhere or left out.

Columns and labels:
Test in all cases: glycan array binding signal (z-score within array); higher = stronger binding
Conditions in all cases: glycan notation: IUPAC condensed, linker removed
[1] = molecular target: Gal(b1-3)GlcNAc(b1-3)Gal(b1-4)GlcNAc(b1-2)[Gal(b1-3)GlcNAc(b1-3)Gal(b1-4)GlcNAc(b1-6)]Man(a1-6)[Gal(b1-3)GlcNAc(b1-3)Gal(b1-4)GlcNAc(b1-2)Man(a1-3)]Man(b1-4)GlcNAc(b1-4)[Fuc(a1-6)]GlcNAc
Outline: (§1)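 Negative Z-scores can be read as non-binding. The Z-score is calculated within each array and then averaged across arrays of one protein sequence at different concentrations or buffers and across linkers. Arrays, 3228 in all, were curated from the Consortium for Functional Glycomics database and kept only where the protein sequence was available.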

[2] = molecular target: Gal(b1-3)GlcNAc(b1-3)Gal(b1-4)GlcNAc(b1-3)Gal(b1-4)GlcNAc(b1-2)[Gal(b1-3)GlcNAc(b1-3)Gal(b1-4)GlcNAc(b1-3)Gal(b1-4)GlcNAc(b1-6)]Man(a1-6)[Gal(b1-3)GlcNAc(b1-3)Gal(b1-4)GlcNAc(b1-3)Gal(b1-4)GlcNAc(b1-2)Man(a1-3)]Man(b1-4)GlcNAc(b1-4)[Fuc(a1-6)]GlcNAc
Outline: as §1

[3] = molecular target: Gal(b1-3)GlcNAc(b1-3)Gal(b1-4)GlcNAc(b1-6)[Gal(b1-3)GlcNAc(b1-3)]Gal(b1-4)Glc
Outline: as §1

[4] = molecular target: Gal(b1-3)GlcNAc(b1-3)Gal(b1-4)[Fuc(a1-3)]GlcNAc
Outline: as §1

[5] = molecular target: Gal(b1-3)GlcNAc(b1-3)Gal(b1-4)[Fuc(a1-3)]GlcNAc(b1-6)[Gal(b1-3)GlcNAc(b1-3)]Gal(b1-4)Glc
Outline: as §1

[6] = molecular target: Gal(b1-3)GlcNAc(b1-3)GalNAc
Outline: as §1

[7] = molecular target: Gal(b1-3)GlcNAc(b1-6)Gal(b1-4)GlcNAc
Outline: as §1

[8] = molecular target: Gal(b1-3)GlcNAc(b1-6)GalNAc
Outline: as §1

[9] = molecular target: Gal(b1-3)GlcNAc(b1-6)[Gal(b1-3)]GalNAc
Outline: as §1

Gal(b1-3)GlcNAc6S = molecular target: Gal(b1-3)GlcNAc6S
Outline: as §1

[10] = molecular target: Gal(b1-3)[Fuc(a1-4)]GlcNAc
Outline: as §1

[11] = molecular target: Gal(b1-3)[Fuc(a1-4)]GlcNAc(b1-2)Man
Outline: as §1

[12] = molecular target: Gal(b1-3)[Fuc(a1-4)]GlcNAc(b1-2)Man(a1-3)[Gal(b1-3)[Fuc(a1-4)]GlcNAc(b1-2)Man(a1-6)]Man(b1-4)GlcNAc(b1-4)[Fuc(a1-6)]GlcNAc
Outline: as §1

[13] = molecular target: Gal(b1-3)[Fuc(a1-4)]GlcNAc(b1-3)Gal(b1-3)[Fuc(a1-4)]GlcNAc
Outline: as §1

[14] = molecular target: Gal(b1-3)[Fuc(a1-4)]GlcNAc(b1-3)Gal(b1-4)[Fuc(a1-3)]GlcNAc
Outline: as §1

[15] = molecular target: Gal(b1-3)[Fuc(a1-4)]GlcNAc(b1-6)GalNAc
Outline: as §1

[16] = molecular target: Gal(b1-3)[GlcNAc(b1-6)]GalNAc
Outline: as §1

[17] = molecular target: Gal(b1-3)[Neu5Ac(a2-6)]GalNAc
Outline: as §1

[18] = molecular target: Gal(b1-3)[Neu5Ac(a2-6)]GlcNAc(b1-4)Gal(b1-4)Glc
Outline: as §1

[19] = molecular target: Gal(b1-3)[Neu5Ac(b2-6)]GalNAc
Outline: as §1

Gal(b1-4)Gal = molecular target: Gal(b1-4)Gal
Outline: as §1

[20] = molecular target: Gal(b1-4)GalNAc(a1-3)[Fuc(a1-2)]Gal(b1-4)GlcNAc
Outline: as §1

[21] = molecular target: Gal(b1-4)GalNAc(b1-3)[Fuc(a1-2)]Gal(b1-4)GlcNAc
Outline: as §1

Gal(b1-4)Glc = molecular target: Gal(b1-4)Glc
Outline: as §1

Gal(b1-4)Glc6S = molecular target: Gal(b1-4)Glc6S
Outline: as §1

Gal(b1-4)GlcNAc = molecular target: Gal(b1-4)GlcNAc
Outline: as §1

[22] = molecular target: Gal(b1-4)GlcNAc(a1-6)Gal(b1-4)GlcNAc
Outline: as §1

Gal(b1-4)GlcNAc(b1-2)Man = molecular target: Gal(b1-4)GlcNAc(b1-2)Man
Outline: as §1

[23] = molecular target: Gal(b1-4)GlcNAc(b1-2)Man(a1-3)Man(b1-4)GlcNAc(b1-4)GlcNAc
Outline: as §1

[24] = molecular target: Gal(b1-4)GlcNAc(b1-2)Man(a1-3)[Gal(b1-4)GlcNAc(b1-2)Man(a1-6)]Man(b1-4)GlcNAc(b1-4)GlcNAc
Outline: as §1

[25] = molecular target: Gal(b1-4)GlcNAc(b1-2)Man(a1-3)[Gal(b1-4)GlcNAc(b1-2)Man(a1-6)]Man(b1-4)GlcNAc(b1-4)[Fuc(a1-6)]GlcNAc
Outline: as §1

[26] = molecular target: Gal(b1-4)GlcNAc(b1-2)Man(a1-3)[Gal(b1-4)GlcNAc(b1-2)Man(a1-6)][Gal(b1-4)GlcNAc(b1-4)]Man(b1-4)GlcNAc(b1-4)[Fuc(a1-6)]GlcNAc
Outline: as §1

[27] = molecular target: Gal(b1-4)GlcNAc(b1-2)Man(a1-3)[Gal(b1-4)GlcNAc(b1-2)Man(a1-6)][GlcNAc(b1-4)]Man(b1-4)GlcNAc(b1-4)[Fuc(a1-6)]GlcNAc
Outline: as §1

[28] = molecular target: Gal(b1-4)GlcNAc(b1-2)Man(a1-3)[GlcNAc(b1-2)Man(a1-6)]Man(b1-4)GlcNAc(b1-4)GlcNAc
Outline: as §1

[29] = molecular target: Gal(b1-4)GlcNAc(b1-2)Man(a1-3)[GlcNAc(b1-4)][Gal(b1-4)GlcNAc(b1-2)Man(a1-6)]Man(b1-4)GlcNAc(b1-4)GlcNAc
Outline: as §1

[30] = molecular target: Gal(b1-4)GlcNAc(b1-2)Man(a1-3)[Man(a1-6)]Man(b1-4)GlcNAc(b1-4)GlcNAc
Outline: as §1

[31] = molecular target: Gal(b1-4)GlcNAc(b1-2)Man(a1-6)Man(b1-4)GlcNAc(b1-4)GlcNAc
Outline: as §1

[32] = molecular target: Gal(b1-4)GlcNAc(b1-2)Man(a1-6)[GlcNAc(b1-2)Man(a1-3)]Man(b1-4)GlcNAc(b1-4)GlcNAc
Outline: as §1

B1: FimA (Actinomyces oris) (protein)
chain: MHHHHHHSSGVDLGTENLYFQSNAETPNYGNIKTDATGSLVIHKHLTGGGKDIGTPTGTAQNADDKGPAVEGVVFTAYPITDINLKDPAGWDTISNLSRTGVPDSACANPAAPTLGAHQFGTPKVSPATTKEGLATITEMPVQAYLVCETTTPGDIVQKAKPFVVTIPHPNTAAGADGQWIYDVNVYPKNEAIDVDKTIQAQKLNGYGVGSLIKFPVESTAPTLDAKSFYKYFQLKDTLDERLSEVTATDVSLEGTPLQPTDYKVETKQQTVTVTFTAEGLKKIKAAPGKKVSAVFQGKVTKAGNGAITNRAQVISDTLYAEQPPTPETPPTDPENPPTSDEVISRWGDLSIKKVDTHQQGQTKAGLQGAQFQLYKAKNAYANTCSNEKEGAPIAINGQTTLTTDAQGAIDIKGLFISDSIDGADRDNQVNAMERCYVLVETKAPAGYVLPAGNGAATPVKVKAGEETTDNVTVENTKQSVPGLPLTG
glycan array binding signal (z-score) [1]: 2.57 | glycan array binding signal (z-score) [2]: 2 | glycan array binding signal (z-score) [3]: -0.645 | glycan array binding signal (z-score) [4]: -0.756 | glycan array binding signal (z-score) [5]: -0.23 | glycan array binding signal (z-score) [6]: 0.226 | glycan array binding signal (z-score) [7]: -0.874 | glycan array binding signal (z-score) [8]: -0.286 | glycan array binding signal (z-score) [9]: -0.07 | glycan array binding signal (z-score) (Gal(b1-3)GlcNAc6S): -0.362 | glycan array binding signal (z-score) [10]: -0.412 | glycan array binding signal (z-score) [11]: 0.024 | glycan array binding signal (z-score) [12]: 0.774 | glycan array binding signal (z-score) [13]: -0.534 | glycan array binding signal (z-score) [14]: 0.459 | glycan array binding signal (z-score) [15]: 0.037 | glycan array binding signal (z-score) [16]: -0.815 | glycan array binding signal (z-score) [17]: -0.221 | glycan array binding signal (z-score) [18]: -0.489 | glycan array binding signal (z-score) [19]: -0.575 | glycan array binding signal (z-score) (Gal(b1-4)Gal): 0.292 | glycan array binding signal (z-score) [20]: -0.354 | glycan array binding signal (z-score) [21]: 0.048 | glycan array binding signal (z-score) (Gal(b1-4)Glc): -0.183 | glycan array binding signal (z-score) (Gal(b1-4)Glc6S): 0.074 | glycan array binding signal (z-score) (Gal(b1-4)GlcNAc): -0.44 | glycan array binding signal (z-score) [22]: -0.746 | glycan array binding signal (z-score) (Gal(b1-4)GlcNAc(b1-2)Man): 0.574 | glycan array binding signal (z-score) [23]: 0.054 | glycan array binding signal (z-score) [24]: -0.3 | glycan array binding signal (z-score) [25]: -0.159 | glycan array binding signal (z-score) [26]: -0.072 | glycan array binding signal (z-score) [27]: -0.885 | glycan array binding signal (z-score) [28]: -0.871 | glycan array binding signal (z-score) [29]: -0.328 | glycan array binding signal (z-score) [30]: -0.761 | glycan array binding signal (z-score) [31]: -0.446 | glycan array binding signal (z-score) [32]: -0.044
